# Measurements as given in patent US9101567B2, “Suppression of cancer growth and metastasis using nordihydroguaiaretic acid derivatives with 7-hydroxystaurosporine” (The Johns Hopkins University, priority 2010, dated 2015).
# For at least one compound, name, drawing or mass did not settle the structure.
# Assays:
# [1] = tested on: caspase-7; assay: Western blotting of caspase-7 cleavage in HepG2 cells; type: cell-based, human; conditions: HepG2, 17 hrs; M4N 80 μM, etoposide 20 μM, rapamycin 20 μM, UCN-01 5 μM
# Experimental: (§1) The sample volumes were adjusted by the total protein amount. Protein assay was performed by Bio-Rad Protein Assay (Bio-Rad Laboratories, Inc. Hercules, Calif.). The samples were resolved by the standard SDS-polyacrylamide gel electrophoresis and transferred to nitrocellulose membrane (Amersham Biosciences, Bjorkgatan, Sweden). The membranes were blocked with skim milk, and incubated with primary antibodies at 4° C. overnight and then with secondary antibody conjugated with horse radish peroxidase at room temperature for 2 hrs. The signals were detected by western blot chemiluminescence reagent plus (New England Nuclear Life Science Products, Boston, Mass.).
# The effect of the combination treatments on cell death and autophagy was examined in two cell lines other than LNCaP cells.
# [2] = tested on: caspase-7; assay: Enzymatic assay for caspase-7 in extracts of treated LNCaP cells; type: cell-based, human; conditions: extracts of LNCaP cells treated for 13 hrs
# Experimental: The enzymatic assay specific for caspase-7 was performed using a CaspSELECT caspase-7 immunoassay kit (BioVision, Mountain View, Calif.). This assay is based on the […] assay with DEVD-afc. Since DEVD-afc can be a substrate for either caspase-3 or 7, only caspase-7 is selected from cell extracts by anti-caspase-7 antibody which is coated on microtiter plates. Briefly the microtiter plates were coated with anti-caspase-7 antibody overnight at 4 C and blocked with a blocking solution for 30 minutes at room temperature. The cell extracts were applied to the microtiter plates. After washing the microtiter plates, the substrate […] was added to the plates and incubated for about three hours. The fluorescence was measured by a microtiter plate fluorescence reader Infinite 200 (Tecan, Switzerland).
# (§2) The efficacy of the combination treatment of M4N with three anticancer drugs, etoposide, rapamycin, and UCN-01 to induce cell death was examined for LNCaP human prostate cancer cells with TUNEL assay. We chose these anticancer drugs trying to diversify the mechanisms in which the anticancer drugs work (43-45). […] Additionally the effect of caspase-3 and 7 inhibitor, zDEVD-fmk on the cell death induced by the combination treatment was examined (FIG. 1E).
# [3] = tested on: caspase-7; assay: Western blotting of caspase-7 cleavage in LNCaP cells; type: cell-based, human; conditions: 17 hrs, M4N 80 μM, etoposide 10 μM, rapamycin 10 μM, UCN-01 2 μM
# Experimental: as §1, §2
# [4] = tested on: LNCaP tumors; assay: Nude mice orthotopically implanted with LNCaP tumors: life-span and lung metastasis; type: in vivo, nude (nu/nu) mice; conditions: LNCaP tumor-bearing nude mice; lung sections, hematoxylin and eosin
# [5] = tested on: caspase-3 and 9; assay: Western blotting of cleaved caspase-3 and 9 in LNCaP cells; type: cell-based, human; conditions: 17 hrs, M4N 80 μM, etoposide 10 μM, rapamycin 10 μM, UCN-01 2 μM
# Experimental: as §1, §2
smiles,measurement,setting,value
CO[C@H]1C[C@@H]2CC[C@@H](C)[C@@](O)(O2)C(=O)C(=O)N2CCCC[C@H]2C(=O)O[C@H]([C@H](C)C[C@@H]2CC[C@@H](O)[C@H](OC)C2)CC(=O)[C@H](C)/C=C(\C)[C@@H](O)[C@@H](OC)C(=O)[C@H](C)C[C@H](C)/C=C/C=C/C=C/1C [rapamycin],caspase-7 cleavage product,[1],small amount
same,caspase-7 activation (enzymatic activity),[2],only a small amount
same,caspase-7 cleavage products (20 and 34 kDa),[3],failed to induce caspase-7 cleavage at all
same,mice with obvious lung metastasis (histology),[4],3 out of 4
same,expression of cleaved caspase-3 and 9,[5],didn't induce the cleavage
